Results are given in words; binding and its absence hold for the method and conditions named. In cells and extracts the contact can be indirect. A result given as binding can be weak or reduced; the word gives no strength.
Molecular target: GST-tagged PDZ domains of ParD3 (UniProt Q8TEW0)
Assay: pull-down; purified GST-tagged PDZ domains of ParD3 or Dvl immobilised on glutathione-Sepharose beads; lysates of transfected HEK293T cells; binding 4 h at 4 °C; immunoblot; only the target purified

Protein sequences, listed by entry. Tags and fused reporters are not part of them. Lines headed by an entry give the natural chain unless they say otherwise; changes in a name come on top.
UniProt Q8TEW0: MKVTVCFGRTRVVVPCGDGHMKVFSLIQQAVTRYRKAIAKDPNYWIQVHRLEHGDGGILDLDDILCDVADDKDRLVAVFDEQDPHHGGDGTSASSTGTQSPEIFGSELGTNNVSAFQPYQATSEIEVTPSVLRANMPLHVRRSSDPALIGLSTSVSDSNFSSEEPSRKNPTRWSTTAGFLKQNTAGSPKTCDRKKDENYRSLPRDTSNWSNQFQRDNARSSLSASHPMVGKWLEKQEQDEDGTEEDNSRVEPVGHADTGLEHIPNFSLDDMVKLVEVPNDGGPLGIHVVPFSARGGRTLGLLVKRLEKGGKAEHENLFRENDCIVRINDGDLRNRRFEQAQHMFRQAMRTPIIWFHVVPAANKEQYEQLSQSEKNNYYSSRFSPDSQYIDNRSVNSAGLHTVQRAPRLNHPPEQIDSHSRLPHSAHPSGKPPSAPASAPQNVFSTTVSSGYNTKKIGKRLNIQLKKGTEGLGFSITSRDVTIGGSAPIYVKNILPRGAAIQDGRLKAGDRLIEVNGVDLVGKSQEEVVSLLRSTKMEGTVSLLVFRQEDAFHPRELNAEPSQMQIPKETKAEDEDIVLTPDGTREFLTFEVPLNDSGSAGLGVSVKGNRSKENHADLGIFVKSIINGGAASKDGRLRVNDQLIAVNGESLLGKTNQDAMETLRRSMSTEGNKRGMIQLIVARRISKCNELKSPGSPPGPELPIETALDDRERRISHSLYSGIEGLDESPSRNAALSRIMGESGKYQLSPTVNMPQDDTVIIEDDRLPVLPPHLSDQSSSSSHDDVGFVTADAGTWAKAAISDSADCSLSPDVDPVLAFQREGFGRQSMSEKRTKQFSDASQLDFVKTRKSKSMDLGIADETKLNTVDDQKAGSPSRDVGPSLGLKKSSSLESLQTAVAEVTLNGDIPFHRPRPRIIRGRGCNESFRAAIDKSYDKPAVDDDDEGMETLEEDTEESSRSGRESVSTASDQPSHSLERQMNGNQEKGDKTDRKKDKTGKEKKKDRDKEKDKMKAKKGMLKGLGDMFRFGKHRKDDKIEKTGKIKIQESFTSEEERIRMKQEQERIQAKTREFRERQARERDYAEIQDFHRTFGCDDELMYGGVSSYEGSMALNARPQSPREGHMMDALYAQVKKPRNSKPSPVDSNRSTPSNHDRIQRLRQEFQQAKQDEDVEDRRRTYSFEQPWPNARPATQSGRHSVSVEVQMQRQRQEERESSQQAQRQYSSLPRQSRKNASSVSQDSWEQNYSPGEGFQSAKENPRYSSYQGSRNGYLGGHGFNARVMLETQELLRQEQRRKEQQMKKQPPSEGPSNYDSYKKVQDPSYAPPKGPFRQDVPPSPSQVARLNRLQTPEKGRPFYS
UniProt A0A2R8QCI3: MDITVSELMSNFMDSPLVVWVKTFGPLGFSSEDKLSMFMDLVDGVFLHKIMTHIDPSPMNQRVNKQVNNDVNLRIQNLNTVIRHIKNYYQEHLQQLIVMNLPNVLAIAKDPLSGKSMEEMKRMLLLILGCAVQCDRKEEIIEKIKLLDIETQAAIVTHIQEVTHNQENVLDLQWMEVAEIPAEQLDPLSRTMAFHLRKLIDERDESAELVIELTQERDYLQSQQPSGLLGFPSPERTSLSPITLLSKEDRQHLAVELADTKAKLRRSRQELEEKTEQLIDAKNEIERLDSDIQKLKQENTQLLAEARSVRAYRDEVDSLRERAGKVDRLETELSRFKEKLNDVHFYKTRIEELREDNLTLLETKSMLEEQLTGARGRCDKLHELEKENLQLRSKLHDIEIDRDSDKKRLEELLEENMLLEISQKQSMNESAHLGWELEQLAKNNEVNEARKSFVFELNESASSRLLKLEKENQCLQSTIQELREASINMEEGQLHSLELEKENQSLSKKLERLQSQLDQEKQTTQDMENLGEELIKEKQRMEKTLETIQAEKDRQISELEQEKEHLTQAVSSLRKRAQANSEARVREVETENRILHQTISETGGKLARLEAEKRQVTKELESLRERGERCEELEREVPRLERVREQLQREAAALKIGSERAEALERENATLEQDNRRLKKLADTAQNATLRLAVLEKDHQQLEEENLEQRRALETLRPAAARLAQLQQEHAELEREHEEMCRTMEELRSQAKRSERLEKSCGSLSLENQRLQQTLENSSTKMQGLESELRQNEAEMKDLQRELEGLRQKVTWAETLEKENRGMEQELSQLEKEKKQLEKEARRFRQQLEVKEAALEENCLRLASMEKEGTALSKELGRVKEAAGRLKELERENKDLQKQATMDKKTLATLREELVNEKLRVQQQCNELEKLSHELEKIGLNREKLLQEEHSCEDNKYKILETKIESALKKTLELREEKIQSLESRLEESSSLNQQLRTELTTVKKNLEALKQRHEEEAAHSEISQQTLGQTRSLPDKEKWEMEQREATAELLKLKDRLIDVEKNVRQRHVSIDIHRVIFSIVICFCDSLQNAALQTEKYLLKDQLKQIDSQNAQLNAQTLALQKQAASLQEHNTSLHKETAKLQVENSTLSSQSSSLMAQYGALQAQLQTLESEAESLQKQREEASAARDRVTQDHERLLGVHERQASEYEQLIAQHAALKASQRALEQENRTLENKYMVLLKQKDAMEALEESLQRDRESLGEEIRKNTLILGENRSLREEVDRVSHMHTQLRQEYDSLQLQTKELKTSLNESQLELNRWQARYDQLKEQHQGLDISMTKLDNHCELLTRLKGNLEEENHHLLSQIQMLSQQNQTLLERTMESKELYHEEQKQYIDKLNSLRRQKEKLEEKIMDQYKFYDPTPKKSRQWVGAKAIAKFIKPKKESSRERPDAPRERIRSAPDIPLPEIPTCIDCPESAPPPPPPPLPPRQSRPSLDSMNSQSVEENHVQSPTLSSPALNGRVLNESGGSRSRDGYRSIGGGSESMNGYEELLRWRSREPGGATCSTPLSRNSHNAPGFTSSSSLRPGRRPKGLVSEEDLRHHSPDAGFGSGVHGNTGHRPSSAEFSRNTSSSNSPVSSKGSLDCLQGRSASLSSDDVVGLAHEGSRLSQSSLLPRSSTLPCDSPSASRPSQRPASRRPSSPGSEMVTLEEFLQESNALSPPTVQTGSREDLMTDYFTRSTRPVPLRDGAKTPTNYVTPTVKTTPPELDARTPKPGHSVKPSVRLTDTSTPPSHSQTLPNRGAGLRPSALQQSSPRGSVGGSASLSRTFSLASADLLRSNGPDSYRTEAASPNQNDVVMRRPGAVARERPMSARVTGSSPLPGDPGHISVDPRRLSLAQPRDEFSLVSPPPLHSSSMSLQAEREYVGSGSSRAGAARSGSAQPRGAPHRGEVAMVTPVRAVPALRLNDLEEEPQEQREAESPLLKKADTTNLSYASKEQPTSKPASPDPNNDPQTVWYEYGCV

binding: binds
Substance: EGFP-tagged C terminus of zebrafish Daple (from UniProt A0A2R8QCI3) (domain or fragment)
